These are yes or no findings as the source states them, for the method shown. In cells and extracts the contact can be indirect. Binding can be weak; no strength is given.

The values below come from PMC7765622, “The Cardioprotective PKA-Mediated Hsp20 Phosphorylation Modulates Protein Associations Regulating Cytoskeletal Dynamics” (International Journal of Molecular Sciences, 2020).

The experiment has as its target 14-3-3, endogenous in mouse cardiac muscle (mouse (endogenous in cardiac extracts)). The experiment is described as follows: co-IP; mouse cardiac extracts, mouse monoclonal 14-3-3 antibody or control IgG with protein-A/G agarose, overnight 4 °C; also with extracts phosphorylated in vitro with PKA or left untreated.

B1: Hsp20 (small heat shock protein 20), endogenous in mouse cardiac muscle (protein, UniProt Q5EBG6 1-162)
chain: MEIPVPVQPSWLRRASAPLPGFSAPGRLFDQRFGEGLLEAELASLCPAAIAPYYLRAPSVALPTAQVSTDSGYFSVLLDVKHFLPEEISVKVVDDHVEVHARHEERPDEHGFIAREFHRRYRLPPGVDPAAVTSALSPEGVLSIQATPASAQAQLPSPPAAK
B1: the binding entry is recorded as “binds”.
